Earlier results on one compound are cited in US9744314B2, “Aerosols for sinunasal drug delivery” (PARI Pharma GmbH, priority 2007, dated 2017).

The structures appear in SMILES notation.

The conditions of this series: at 25° C.

`OC[C@H]1O[C@@H]2O[C@H]3[C@H](O)[C@@H](O)[C@@H](O[C@H]4[C@H](O)[C@@H](O)[C@@H](O[C@H]5[C@H](O)[C@@H](O)[C@@H](O[C@H]6[C@H](O)[C@@H](O)[C@@H](O[C@H]7[C@H](O)[C@@H](O)[C@@H](O[C@H]1[C@H](O)[C@H]2O)O[C@@H]7CO)O[C@@H]6CO)O[C@@H]5CO)O[C@@H]4CO)O[C@@H]3CO` [α-cyclodextrin]: the Aqueous solubility entry is given as “about 145 mg/ml”.
